The values below come from article doi:10.1101/2021.10.29.466147 (bioRxiv, 2021).

Assay [1] deals with T1, Brn1-His12-HA3, kleisin subunit of S. cerevisiae condensin (S. cerevisiae) (UniProt P38170).
T1 sequence: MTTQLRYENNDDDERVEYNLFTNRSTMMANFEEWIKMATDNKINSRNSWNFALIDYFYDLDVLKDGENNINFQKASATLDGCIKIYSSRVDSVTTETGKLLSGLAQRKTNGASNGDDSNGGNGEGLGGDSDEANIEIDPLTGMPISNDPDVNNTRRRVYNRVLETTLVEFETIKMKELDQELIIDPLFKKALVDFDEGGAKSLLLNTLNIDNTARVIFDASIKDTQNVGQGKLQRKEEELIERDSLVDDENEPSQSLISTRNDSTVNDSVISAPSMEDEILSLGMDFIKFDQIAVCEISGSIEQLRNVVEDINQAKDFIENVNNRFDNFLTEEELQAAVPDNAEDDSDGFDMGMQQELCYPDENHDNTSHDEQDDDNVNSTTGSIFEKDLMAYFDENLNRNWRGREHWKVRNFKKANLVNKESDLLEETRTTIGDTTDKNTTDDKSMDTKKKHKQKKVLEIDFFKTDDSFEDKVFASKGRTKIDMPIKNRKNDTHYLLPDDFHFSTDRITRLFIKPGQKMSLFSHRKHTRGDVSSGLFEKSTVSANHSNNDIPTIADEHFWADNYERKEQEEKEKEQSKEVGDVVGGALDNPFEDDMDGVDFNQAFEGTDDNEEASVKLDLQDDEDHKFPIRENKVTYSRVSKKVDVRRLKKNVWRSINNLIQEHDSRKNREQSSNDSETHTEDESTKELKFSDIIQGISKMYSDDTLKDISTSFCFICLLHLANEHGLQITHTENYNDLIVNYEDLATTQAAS
The experiment in a line: co-purification.

Assay [2] deals with T2, Smc2 K639C (cross-linkable hinge condensin) (S. cerevisiae) (UniProt P38989).
T2 sequence: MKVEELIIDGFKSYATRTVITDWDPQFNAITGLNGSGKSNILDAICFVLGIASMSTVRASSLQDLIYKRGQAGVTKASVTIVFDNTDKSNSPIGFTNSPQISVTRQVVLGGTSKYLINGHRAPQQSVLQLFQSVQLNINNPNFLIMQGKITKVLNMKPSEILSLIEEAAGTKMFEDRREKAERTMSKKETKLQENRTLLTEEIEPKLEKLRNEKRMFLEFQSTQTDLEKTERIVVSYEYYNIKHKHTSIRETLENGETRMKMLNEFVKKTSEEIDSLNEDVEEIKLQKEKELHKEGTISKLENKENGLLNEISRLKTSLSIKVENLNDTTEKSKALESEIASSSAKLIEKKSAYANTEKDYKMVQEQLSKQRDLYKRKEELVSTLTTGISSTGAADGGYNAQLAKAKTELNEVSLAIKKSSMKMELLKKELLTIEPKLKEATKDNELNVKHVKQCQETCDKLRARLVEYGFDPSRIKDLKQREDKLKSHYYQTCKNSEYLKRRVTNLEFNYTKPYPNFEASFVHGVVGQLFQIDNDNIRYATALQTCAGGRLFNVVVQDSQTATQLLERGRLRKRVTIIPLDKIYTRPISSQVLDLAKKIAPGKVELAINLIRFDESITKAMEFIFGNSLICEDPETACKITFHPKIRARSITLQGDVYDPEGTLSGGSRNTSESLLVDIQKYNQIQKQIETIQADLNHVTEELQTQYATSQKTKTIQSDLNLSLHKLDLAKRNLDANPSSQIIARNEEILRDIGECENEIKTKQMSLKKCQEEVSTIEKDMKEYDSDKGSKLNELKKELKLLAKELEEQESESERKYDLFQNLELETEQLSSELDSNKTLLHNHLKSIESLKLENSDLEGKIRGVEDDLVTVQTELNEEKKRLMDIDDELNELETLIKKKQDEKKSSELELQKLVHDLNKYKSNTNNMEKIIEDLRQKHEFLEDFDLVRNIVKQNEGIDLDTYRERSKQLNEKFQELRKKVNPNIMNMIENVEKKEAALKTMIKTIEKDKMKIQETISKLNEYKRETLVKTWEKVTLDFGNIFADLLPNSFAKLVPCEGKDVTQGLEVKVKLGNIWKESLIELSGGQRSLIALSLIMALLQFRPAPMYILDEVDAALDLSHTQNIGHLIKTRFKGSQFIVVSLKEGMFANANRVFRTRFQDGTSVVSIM
Nature of the assay: cross-linking.

These are yes or no findings as the source states them, for the method shown. Some binding calls cover weakened binding; strength is not graded here. For part of these data: Where a sequence is shown, tags or fusion partners need not be part of it.

B1: Smc2 of unmodified (wild-type) S. cerevisiae condensin (protein, UniProt P38989 1-1170)
chain: MKVEELIIDGFKSYATRTVITDWDPQFNAITGLNGSGKSNILDAICFVLGIASMSTVRASSLQDLIYKRGQAGVTKASVTIVFDNTDKSNSPIGFTNSPQISVTRQVVLGGTSKYLINGHRAPQQSVLQLFQSVQLNINNPNFLIMQGKITKVLNMKPSEILSLIEEAAGTKMFEDRREKAERTMSKKETKLQENRTLLTEEIEPKLEKLRNEKRMFLEFQSTQTDLEKTERIVVSYEYYNIKHKHTSIRETLENGETRMKMLNEFVKKTSEEIDSLNEDVEEIKLQKEKELHKEGTISKLENKENGLLNEISRLKTSLSIKVENLNDTTEKSKALESEIASSSAKLIEKKSAYANTEKDYKMVQEQLSKQRDLYKRKEELVSTLTTGISSTGAADGGYNAQLAKAKTELNEVSLAIKKSSMKMELLKKELLTIEPKLKEATKDNELNVKHVKQCQETCDKLRARLVEYGFDPSRIKDLKQREDKLKSHYYQTCKNSEYLKRRVTNLEFNYTKPYPNFEASFVHGVVGQLFQIDNDNIRYATALQTCAGGRLFNVVVQDSQTATQLLERGRLRKRVTIIPLDKIYTRPISSQVLDLAKKIAPGKVELAINLIRFDESITKAMEFIFGNSLICEDPETAKKITFHPKIRARSITLQGDVYDPEGTLSGGSRNTSESLLVDIQKYNQIQKQIETIQADLNHVTEELQTQYATSQKTKTIQSDLNLSLHKLDLAKRNLDANPSSQIIARNEEILRDIGECENEIKTKQMSLKKCQEEVSTIEKDMKEYDSDKGSKLNELKKELKLLAKELEEQESESERKYDLFQNLELETEQLSSELDSNKTLLHNHLKSIESLKLENSDLEGKIRGVEDDLVTVQTELNEEKKRLMDIDDELNELETLIKKKQDEKKSSELELQKLVHDLNKYKSNTNNMEKIIEDLRQKHEFLEDFDLVRNIVKQNEGIDLDTYRERSKQLNEKFQELRKKVNPNIMNMIENVEKKEAALKTMIKTIEKDKMKIQETISKLNEYKRETLVKTWEKVTLDFGNIFADLLPNSFAKLVPCEGKDVTQGLEVKVKLGNIWKESLIELSGGQRSLIALSLIMALLQFRPAPMYILDEVDAALDLSHTQNIGHLIKTRFKGSQFIVVSLKEGMFANANRVFRTRFQDGTSVVSIM
With B1, in assay [1], the binding entry is “binds”.

B2: Smc4 V721C (cross-linkable hinge condensin) (protein, UniProt Q12267 1-1418)
chain: MSDSPLSKRQKRKSAQEPELSLDQGDAEEDSQVENRVNLSENTPEPDLPALEASYSKSYTPRKLVLSSGENRYAFSQPTNSTTTSLHVPNLQPPKTSSRGRDHKSYSQSPPRSPGRSPTRRLELLQLSPVKNSRVELQKIYDRHQSSSKQQSRLFINELVLENFKSYAGKQVVGPFHTSFSAVVGPNGSGKSNVIDSMLFVFGFRANKMRQDRLSDLIHKSEAFPSLQSCSVAVHFQYVIDESSGTSRIDEEKPGLIITRKAFKNNSSKYYINEKESSYTEVTKLLKNEGIDLDHKRFLILQGEVENIAQMKPKAEKESDDGLLEYLEDIIGTANYKPLIEERMGQIENLNEVCLEKENRFEIVDREKNSLESGKETALEFLEKEKQLTLLRSKLFQFKLLQSNSKLASTLEKISSSNKDLEDEKMKFQESLKKVDEIKAQRKEIKDRISSCSSKEKTLVLERRELEGTRVSLEERTKNLVSKMEKAEKTLKSTKHSISEAENMLEELRGQQTEHETEIKDLTQLLEKERSILDDIKLSLKDKTKNISAEIIRHEKELEPWDLQLQEKESQIQLAESELSLLEETQAKLKKNVETLEEKILAKKTHKQELQDLILDLKKKLNSLKDERSQGEKNFTSAHLKLKEMQKVLNAHRQRAMEARSSLSKAQNKSKVLTALSRLQKSGRINGFHGRLGDLGVIDDSFDVAISTACPRLDDVVVDTCECAQHCIDYLRKNKLGYARFILLDRLRQFNLQPISTPENVPRLFDLVKPKNPKFSNAFYSVLRDTLVAQNLKQANNVAYGKKRFRVVTVDGKLIDISGTMSGGGNHVAKGLMKLGTNQSDKVDDYTPEEVDKIERELSERENNFRVASDTVHEMEEELKKLRDHEPDLESQISKAEMEADSLASELTLAEQQVKEAEMAYVKAVSDKAQLNVVMKNLERLRGEYNDLQSETKTKKEKIKGLQDEIMKIGGIKLQMQNSKVESVCQKLDILVAKLKKVKSASKKSGGDVVKFQKLLQNSERDVELSSDELKVIEEQLKHTKLALAENDTNMNETLNLKVELKEQSEQLKEQMEDMEESINEFKSIEIEMKNKLEKLNSLLTYIKSEITQQEKGLNELSIRDVTHTLGMLDDNKMDSVKEDVKNNQELDQEYRSCETQDESEIKDAETSCDNYHPMNIDETSDEVSRGIPRLSEDELRELDVELIESKINELSYYVEETNVDIGVLEEYARRLAEFKRRKLDLNNAVQKRDEVKEQLGILKKKRFDEFMAGFNIISMTLKEMYQMITMGGNAELELVDSLDPFSEGVTFSVMPPKKSWRNITNLSGGEKTLSSLALVFALHKYKPTPLYVMDEIDAALDFRNVSIVANYIKERTKNAQFIVISLRNNMFELAQQLVGVYKRDNRTKSTTIKNIDILNRT
For B2, the binding entry in assay [2] is recorded as “binds”.

B3: Smc4-StrepII3 of unmodified (wild-type) S. cerevisiae condensin (protein, UniProt Q12267 1-1418)
chain: MSDSPLSKRQKRKSAQEPELSLDQGDAEEDSQVENRVNLSENTPEPDLPALEASYSKSYTPRKLVLSSGENRYAFSQPTNSTTTSLHVPNLQPPKTSSRGRDHKSYSQSPPRSPGRSPTRRLELLQLSPVKNSRVELQKIYDRHQSSSKQQSRLFINELVLENFKSYAGKQVVGPFHTSFSAVVGPNGSGKSNVIDSMLFVFGFRANKMRQDRLSDLIHKSEAFPSLQSCSVAVHFQYVIDESSGTSRIDEEKPGLIITRKAFKNNSSKYYINEKESSYTEVTKLLKNEGIDLDHKRFLILQGEVENIAQMKPKAEKESDDGLLEYLEDIIGTANYKPLIEERMGQIENLNEVCLEKENRFEIVDREKNSLESGKETALEFLEKEKQLTLLRSKLFQFKLLQSNSKLASTLEKISSSNKDLEDEKMKFQESLKKVDEIKAQRKEIKDRISSCSSKEKTLVLERRELEGTRVSLEERTKNLVSKMEKAEKTLKSTKHSISEAENMLEELRGQQTEHETEIKDLTQLLEKERSILDDIKLSLKDKTKNISAEIIRHEKELEPWDLQLQEKESQIQLAESELSLLEETQAKLKKNVETLEEKILAKKTHKQELQDLILDLKKKLNSLKDERSQGEKNFTSAHLKLKEMQKVLNAHRQRAMEARSSLSKAQNKSKVLTALSRLQKSGRINGFHGRLGDLGVIDDSFDVAISTACPRLDDVVVDTVECAQHCIDYLRKNKLGYARFILLDRLRQFNLQPISTPENVPRLFDLVKPKNPKFSNAFYSVLRDTLVAQNLKQANNVAYGKKRFRVVTVDGKLIDISGTMSGGGNHVAKGLMKLGTNQSDKVDDYTPEEVDKIERELSERENNFRVASDTVHEMEEELKKLRDHEPDLESQISKAEMEADSLASELTLAEQQVKEAEMAYVKAVSDKAQLNVVMKNLERLRGEYNDLQSETKTKKEKIKGLQDEIMKIGGIKLQMQNSKVESVCQKLDILVAKLKKVKSASKKSGGDVVKFQKLLQNSERDVELSSDELKVIEEQLKHTKLALAENDTNMNETLNLKVELKEQSEQLKEQMEDMEESINEFKSIEIEMKNKLEKLNSLLTYIKSEITQQEKGLNELSIRDVTHTLGMLDDNKMDSVKEDVKNNQELDQEYRSCETQDESEIKDAETSCDNYHPMNIDETSDEVSRGIPRLSEDELRELDVELIESKINELSYYVEETNVDIGVLEEYARRLAEFKRRKLDLNNAVQKRDEVKEQLGILKKKRFDEFMAGFNIISMTLKEMYQMITMGGNAELELVDSLDPFSEGVTFSVMPPKKSWRNITNLSGGEKTLSSLALVFALHKYKPTPLYVMDEIDAALDFRNVSIVANYIKERTKNAQFIVISLRNNMFELAQQLVGVYKRDNRTKSTTIKNIDILNRT
Take B3: the binding entry in assay [1] is reported as “binds”.
